Source: US20230405119A1
Results are given in words; binding and its absence hold for the method and conditions named. Some binding calls cover weakened binding; strength is not graded here.

Amino acid sequences for entries named in this document (tags omitted). A change or cut given only in a name is not applied to a line headed by its entry.
UniProt P35225: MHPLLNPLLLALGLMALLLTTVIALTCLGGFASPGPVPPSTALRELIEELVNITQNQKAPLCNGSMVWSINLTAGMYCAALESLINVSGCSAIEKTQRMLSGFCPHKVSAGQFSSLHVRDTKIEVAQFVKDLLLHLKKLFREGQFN

Tests used:
immobilized IL13Rα2 = molecular target: T1, immobilized IL13Rα2 (UniProt Q14627); assay: yeast-displayed IL13; surface plasmon resonance with immobilized recombinant receptor, as the filing words it
T1 sequence (looked up): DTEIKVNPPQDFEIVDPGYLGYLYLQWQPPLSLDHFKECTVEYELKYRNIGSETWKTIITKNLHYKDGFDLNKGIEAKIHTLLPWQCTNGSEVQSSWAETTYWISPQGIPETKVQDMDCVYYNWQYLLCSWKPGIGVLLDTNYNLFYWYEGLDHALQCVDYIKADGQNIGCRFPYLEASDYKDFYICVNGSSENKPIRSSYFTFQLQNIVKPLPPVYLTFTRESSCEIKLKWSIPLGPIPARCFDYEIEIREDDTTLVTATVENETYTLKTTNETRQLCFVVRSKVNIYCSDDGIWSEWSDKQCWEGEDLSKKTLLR

[1] = molecular target: T2, immobilized recombinant IL13Rα1 (UniProt P78552); assay: as above
T2 sequence (looked up): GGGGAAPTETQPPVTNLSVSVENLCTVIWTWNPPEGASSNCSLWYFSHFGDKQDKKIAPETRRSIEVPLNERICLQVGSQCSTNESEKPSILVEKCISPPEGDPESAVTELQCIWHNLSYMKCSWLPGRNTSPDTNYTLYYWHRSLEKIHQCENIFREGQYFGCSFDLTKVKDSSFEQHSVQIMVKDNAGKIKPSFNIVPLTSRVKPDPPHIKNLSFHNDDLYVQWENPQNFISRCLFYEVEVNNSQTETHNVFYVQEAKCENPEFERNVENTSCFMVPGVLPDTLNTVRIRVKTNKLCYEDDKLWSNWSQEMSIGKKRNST

Question: “wild-type IL13 (from UniProt P35225 35-146) (ligand)” was tested. Which binding (immobilized IL13Rα2) did it give?
Answer: binds

Question: What about the binding [1] of the same substance?
Answer: binds
